Data from PubChem BioAssay AID624298 (National Center for Advancing Translational Sciences (NCATS), 2012).
The inconclusive results got no clear call from the source; some entries with a clear call stand among them for comparison. Potencies of inconclusive entries are doubtful fits and often do not repeat. Active and inactive are the calls of the source. Calls follow the shape of the dose curve; as a rule, active = well fitted activation curve with a large enough effect; inconclusive = small, poorly fitted or top-dose-only effect; inactive = no such curve, though single readings can be large or run the other way.

Experiment: Activators of T cell receptors: Hit Validation
Settings: primary human leukocytes, cytokine release by HTRF, 48 h
From the text: Normally activation of naive T cells requires two signals. 1. A signal through the T cell receptor (TCR) which provides antigen specificity to the response. 2. Signals through co-stimulatory molecules, which are necessary for proliferation, survival and cytokine production. In the absence of co-stimulatory signals T cells are not effectively activated, and may even be rendered anergic or unresponsive to subsequent signaling. This lack of costimulation has been shown in multiple model systems to be a major factor in the limited strength and effectiveness of anti-tumor T cell responses. The goal of this project is to identify small molecule compounds that will stimulate T cell activation in the presence of TCR signaling but in the absence of co-stimulatory signals, thereby allowing activation of naive T cells in the absence of co-stimulation. Identification of such compounds would have clear experimental and clinical applications in instances where desirable antigen-specific immune responses are not generated due to a lack of co-stimulation, for example in the generation of anti-tumor responses.
In collaboration between the National Cancer Institute and NIH Chemical Genomics Center, a high-throughput amenable screen was developed to discover small molecules that co-stimulate and activate human T cell receptors. The screen will be carried out using a novel homogeneous time resolved fluorescence energy transfer (HTRF) assay to measure production of the cytokine IL-2 by activated T cells and will be tested against the NIH Molecular Libraries Small Molecule Repository (MLSMR). This is the same assay tested against the hits identified in the primary screen.
NIH Chemical Genomics Center [NCGC]
NIH Molecular Libraries Probe Centers Network [MLPCN]
Assay Submitter (PI): Richard Hodes, National Cancer Institute, NIH
Primary human leukocytes are incubated with a-CD3 beads and compounds for 48 hr. The amount of secreted IL-2 is then assayed with a HTRF IL-2 kit. The presence of IL-2 cytokine captures the detection reagents and brings the a-IL-2-K and a-IL-2-d2 into close proximity. Upon excitation with 320nm light, the europium cryptate is capable of transferring energy to acceptor molecules within close proximity, resulting in acceptor molecule emission at 665nm.
Potency is read from the fitted curve at half-maximal effect.

Row | SMILES | Potency
1 | CNc1ccc2nc3ccccc3[n+](C)c2c1 | inconclusive: 6.28 µM [activator, full curve]
2 | CN(C)c1ccc(/C=C/c2cc[n+](C)c3ccccc23)cc1 | active: 7.91 µM
3 | C=C(C)[C@@]12OC3(c4ccccc4)O[C@@H]1C1[C@@H]4O[C@]4(CO)[C@@H](O)[C@]4(O)C(=O)C(C)=C[C@H]4[C@@]1(O3)[C@H](C)[C@H]2OC(=O)/C=C/C=C/c1ccccc1 (some centres undefined) | active: 0.002 µM
4 | CC[n+]1c(/C=C/C=C/c2ccc(N(C)C)cc2)sc2ccccc21 | inconclusive: 1.25 µM [activator, full curve]
